Laboratory results reported in US5068222A (Imperial Chemical Industries PLC, priority 1987, dated 1991).

Assay: general procedure: Boc solid-phase peptide synthesis; methylbenzhydrylamine resin
Conditions: whole synthesis, scale 0.5 mmole

Ac-GNHWAVGHL-NH2
crude mass: 0.39 g | isolated mass: 0.2 g
